{"source": "the supplement of paper PMC8728848", "experiment_in_all_cases": "glycan array binding signal (z-score within array); higher = stronger binding", "conditions_in_all_cases": "glycan notation: IUPAC condensed, linker removed", "key": {"Fuc(a1-2)Gal": {"target": "Fuc(a1-2)Gal", "method_in_brief": "(§1)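 Glycan array data came from 3228 arrays in the Consortium for Functional Glycomics database, and only arrays with an available protein sequence were kept. Glycan names were put into IUPAC-condensed notation, and columns mapping to the same glycan were averaged. The binding signal is a within-array Z-score, averaged across arrays of one protein sequence run at different concentrations or buffers and across linkers. A negative Z-score can be read as non-binding.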"}, "Fuc(a1-2)Gal(b1-3)GalNAc": {"target": "Fuc(a1-2)Gal(b1-3)GalNAc", "method_in_brief": "as §1"}, "[1]": {"target": "Fuc(a1-2)Gal(b1-3)GalNAc(a1-3)[Fuc(a1-2)]Gal(b1-4)Glc", "method_in_brief": "as §1"}, "[2]": {"target": "Fuc(a1-2)Gal(b1-3)GalNAc(a1-3)[Fuc(a1-2)]Gal(b1-4)GlcNAc", "method_in_brief": "as §1"}, "[3]": {"target": "Fuc(a1-2)Gal(b1-3)GalNAc(b1-3)Gal", "method_in_brief": "as §1"}, "[4]": {"target": "Fuc(a1-2)Gal(b1-3)GalNAc(b1-3)Gal(a1-4)Gal(b1-4)Glc", "method_in_brief": "as §1"}, "[5]": {"target": "Fuc(a1-2)Gal(b1-3)GalNAc(b1-4)[Neu5Ac(a2-3)]Gal(b1-4)Glc", "method_in_brief": "as §1"}, "Fuc(a1-2)Gal(b1-3)GlcNAc": {"target": "Fuc(a1-2)Gal(b1-3)GlcNAc", "method_in_brief": "as §1"}, "[6]": {"target": "Fuc(a1-2)Gal(b1-3)GlcNAc(b1-2)Man(a1-3)[Fuc(a1-2)Gal(b1-3)GlcNAc(b1-2)Man(a1-6)]Man(b1-4)GlcNAc(b1-4)GlcNAc", "method_in_brief": "as §1"}, "[7]": {"target": "Fuc(a1-2)Gal(b1-3)GlcNAc(b1-2)Man(a1-3)[Fuc(a1-2)Gal(b1-3)GlcNAc(b1-2)Man(a1-6)]Man(b1-4)GlcNAc(b1-4)[Fuc(a1-6)]GlcNAc", "method_in_brief": "as §1"}, "[8]": {"target": "Fuc(a1-2)Gal(b1-3)GlcNAc(b1-3)Gal(b1-4)Glc", "method_in_brief": "as §1"}, "[9]": {"target": "Fuc(a1-2)Gal(b1-3)GlcNAc(b1-3)GalNAc", "method_in_brief": "as §1"}, "[10]": {"target": "Fuc(a1-2)Gal(b1-3)GlcNAc(b1-3)[Fuc(a1-2)Gal(b1-3)GlcNAc(b1-6)]GalNAc", "method_in_brief": "as §1"}, "[11]": {"target": "Fuc(a1-2)Gal(b1-3)GlcNAc(b1-3)[Gal(b1-4)GlcNAc(b1-6)]Gal(b1-4)Glc", "method_in_brief": "as §1"}, "[12]": {"target": "Fuc(a1-2)Gal(b1-3)GlcNAc(b1-3)[Neu5Ac(a2-6)Gal(b1-4)GlcNAc(b1-6)]Gal(b1-4)Glc", "method_in_brief": "as §1"}, "[13]": {"target": "Fuc(a1-2)Gal(b1-3)GlcNAc6S", "method_in_brief": "as §1"}, "[14]": {"target": "Fuc(a1-2)Gal(b1-3)[Fuc(a1-4)]GlcNAc", "method_in_brief": "as §1"}, "[15]": {"target": "Fuc(a1-2)Gal(b1-3)[Fuc(a1-4)]GlcNAc(b1-2)Man(a1-3)[Fuc(a1-2)Gal(b1-3)[Fuc(a1-4)]GlcNAc(b1-2)Man(a1-3)]Man(b1-4)GlcNAc(b1-4)GlcNAc", "method_in_brief": "as §1"}, "[16]": {"target": "Fuc(a1-2)Gal(b1-3)[Fuc(a1-4)]GlcNAc(b1-2)Man(a1-3)[Fuc(a1-2)Gal(b1-3)[Fuc(a1-4)]GlcNAc(b1-2)Man(a1-6)]Man(b1-4)GlcNAc(b1-4)[Fuc(a1-6)]GlcNAc(b1-4)[Fuc(a1-6)]GlcNAc", "method_in_brief": "as §1"}, "[17]": {"target": "Fuc(a1-2)Gal(b1-3)[Fuc(a1-4)]GlcNAc(b1-3)[Fuc(a1-3)[Gal(b1-4)]GlcNAc(b1-6)]Gal(b1-4)Glc", "method_in_brief": "as §1"}, "[18]": {"target": "Fuc(a1-2)Gal(b1-3)[Fuc(a1-4)]GlcNAc(b1-3)[Gal(b1-4)GlcNAc(b1-6)]Gal(b1-4)Glc", "method_in_brief": "as §1"}, "[19]": {"target": "Fuc(a1-2)Gal(b1-4)Fuc(a1-3)]GlcNAc(b1-2)Man(a1-3)[Fuc(a1-2)Gal(b1-4)[Fuc(a1-3)]GlcNAc(b1-2)Man(a1-6)]Man(b1-4)GlcNAc(b1-4)GlcNAc", "method_in_brief": "as §1"}, "Fuc(a1-2)Gal(b1-4)Glc": {"target": "Fuc(a1-2)Gal(b1-4)Glc", "method_in_brief": "as §1"}, "Fuc(a1-2)Gal(b1-4)Glc6S": {"target": "Fuc(a1-2)Gal(b1-4)Glc6S", "method_in_brief": "as §1"}, "Fuc(a1-2)Gal(b1-4)GlcNAc": {"target": "Fuc(a1-2)Gal(b1-4)GlcNAc", "method_in_brief": "as §1"}, "[20]": {"target": "Fuc(a1-2)Gal(b1-4)GlcNAc(b1-2)Man", "method_in_brief": "as §1"}, "[21]": {"target": "Fuc(a1-2)Gal(b1-4)GlcNAc(b1-2)Man(a1-3)[Fuc(a1-2)Gal(b1-4)GlcNAc(b1-2)Man(a1-6)]Man(b1-4)GlcNAc(b1-4)GlcNAc", "method_in_brief": "as §1"}, "[22]": {"target": "Fuc(a1-2)Gal(b1-4)GlcNAc(b1-2)Man(a1-3)[Fuc(a1-2)Gal(b1-4)GlcNAc(b1-2)Man(a1-6)]Man(b1-4)GlcNAc(b1-4)[Fuc(a1-6)]GlcNAc", "method_in_brief": "as §1"}, "[23]": {"target": "Fuc(a1-2)Gal(b1-4)GlcNAc(b1-2)[Fuc(a1-2)Gal(b1-4)GlcNAc(b1-4)]Man(a1-3)[Fuc(a1-2)Gal(b1-4)GlcNAc(b1-2)Man(a1-6)]Man(b1-4)GlcNAc(b1-4)GlcNAc", "method_in_brief": "as §1"}, "[24]": {"target": "Fuc(a1-2)Gal(b1-4)GlcNAc(b1-3)Gal(b1-4)GlcNAc", "method_in_brief": "as §1"}}, "note": "The other results are listed elsewhere or left out."}
{"binder": "B3GalT2 (Rattus norvegicus) (protein) LMLQWRRRHCCFAKMSWNAKRSLFRTHLMGVLSLVFLFAMFLFFNHHDWLPGRPGFKENPVTYTFRGFRSTKTETNQSSLRNIWKEVVPQTLRPQTATNSNNTELSPQGVTGLENTLSANGSIYNEKGTGHPNSYHFKYIINEPEKCQEKSPFLILLIAAEPGQIEARRAIRQTWGNETLAPGIQITRIFLLGISIKLNGYLQHAIQEESIQYHDIIQQEYLDTYYNLTIKTLMGMNWVATYCPHTPYVMKTDSDMFVNTEYLIHKLLKPDLPPRHNYFTGYLMRGYAPNRNKDSKWYMPPDLYPSERYPVFCSGTGYVFSGDLAEKIFKVSLGIRRLHLEDVYVGICLAKLRVDPVPPPNEFVFNHWRVSYSSCKYSHLITSHQFQPSELIKYWNHLQQNKHNACVNAAKEKAGRYRHRKLH", "values": [{"measurement": "glycan array binding signal (z-score)", "setting": "Fuc(a1-2)Gal", "result": 0.694}, {"measurement": "glycan array binding signal (z-score)", "setting": "Fuc(a1-2)Gal(b1-3)GalNAc", "result": -0.296}, {"measurement": "glycan array binding signal (z-score)", "setting": "[1]", "result": -0.857}, {"measurement": "glycan array binding signal (z-score)", "setting": "[2]", "result": 0.065}, {"measurement": "glycan array binding signal (z-score)", "setting": "[3]", "result": -0.654}, {"measurement": "glycan array binding signal (z-score)", "setting": "[4]", "result": -0.34}, {"measurement": "glycan array binding signal (z-score)", "setting": "[5]", "result": -0.823}, {"measurement": "glycan array binding signal (z-score)", "setting": "Fuc(a1-2)Gal(b1-3)GlcNAc", "result": 0.359}, {"measurement": "glycan array binding signal (z-score)", "setting": "[6]", "result": -0.541}, {"measurement": "glycan array binding signal (z-score)", "setting": "[7]", "result": -0.726}, {"measurement": "glycan array binding signal (z-score)", "setting": "[8]", "result": -0.126}, {"measurement": "glycan array binding signal (z-score)", "setting": "[9]", "result": 0.734}, {"measurement": "glycan array binding signal (z-score)", "setting": "[10]", "result": 0.154}, {"measurement": "glycan array binding signal (z-score)", "setting": "[11]", "result": -0.899}, {"measurement": "glycan array binding signal (z-score)", "setting": "[12]", "result": -0.965}, {"measurement": "glycan array binding signal (z-score)", "setting": "[13]", "result": -0.012}, {"measurement": "glycan array binding signal (z-score)", "setting": "[14]", "result": -0.163}, {"measurement": "glycan array binding signal (z-score)", "setting": "[15]", "result": -0.761}, {"measurement": "glycan array binding signal (z-score)", "setting": "[16]", "result": -0.602}, {"measurement": "glycan array binding signal (z-score)", "setting": "[17]", "result": -1.1}, {"measurement": "glycan array binding signal (z-score)", "setting": "[18]", "result": -1.07}, {"measurement": "glycan array binding signal (z-score)", "setting": "[19]", "result": -1.01}, {"measurement": "glycan array binding signal (z-score)", "setting": "Fuc(a1-2)Gal(b1-4)Glc", "result": -0.322}, {"measurement": "glycan array binding signal (z-score)", "setting": "Fuc(a1-2)Gal(b1-4)Glc6S", "result": 0.2}, {"measurement": "glycan array binding signal (z-score)", "setting": "Fuc(a1-2)Gal(b1-4)GlcNAc", "result": 1.14}, {"measurement": "glycan array binding signal (z-score)", "setting": "[20]", "result": -0.797}, {"measurement": "glycan array binding signal (z-score)", "setting": "[21]", "result": -0.782}, {"measurement": "glycan array binding signal (z-score)", "setting": "[22]", "result": -0.933}, {"measurement": "glycan array binding signal (z-score)", "setting": "[23]", "result": -1.07}, {"measurement": "glycan array binding signal (z-score)", "setting": "[24]", "result": -0.829}]}
